Measurements reported in patent US9963674B2, “Age-modified cells and methods for making age-modified cells” (Memorial Sloan-Kettering Cancer Center, priority 2013, dated 2018).

Test system: iPSC-derived mDA neuron grafts in NOD-SCID IL2Rgc-null mice
Test: Ultrastructural analysis of grafts by transmission electron microscopy
Type: in vivo
Conditions: six months, PINK1 grafts
Method: Procedures were performed according to (Milner et al., Methods Mol Biol 793:23-59 (2011)). Briefly, six months following transplantation of human iPSC-derived mDA neurons, mice were overdosed with 150 mg/kg sodium pentobarbital intraperitoneally. The brains were fixed by aortic arch perfusion sequentially with normal saline (0.9%) containing 1000 units/ml of Heparin, 50 ml of 3.75% acrolein and 2% paraformaldehyde in 0.1 M phosphate buffer (PB, pH 7.4), and 200 ml of 2% PFA in PB. The brains were removed and post-fixed with 1.87% acrolein/2% PFA in PB for 30 minutes at room temperature. Coronal tissue blocks were sectioned (40 μm) on a vibrating microtome (Leica Microsystems, Deerfield, Ill.). Selected sections containing the xenograft were pretreated in 1% sodium borohydride. Non-specific binding was blocked with 0.5% BSA 0.1 M Tris-saline (TS, pH 7.6). Primary antibodies (see Table S4) were diluted in 0.1% BSA in TS and incubated overnight at 4° C. Sections were incubated with a biotinylated secondary antibody (Jackson ImmunoResearch, West Grove, Pa.) for 30 minutes at room temperature. […] The number of TH-immunogold particles per μm^2 in 25 dendrites per group and the area (μm^2) quantification of 25 mitochondria per group were performed using ImageJ.

Question: How did the mitochondria area turn out when “GFP-progerin: progerin (truncated lamin A) fused to GFP, SEQ ID No. 2, overexpressed via modified-RNA or hSyn lentivirus” was run?
Answer: 0.167 μm^2
